# Screen size: about 140,000 compounds; about 4,300 (3.1%) were called active. Inconclusive means that the source gave no clear call. Such entries were picked first, then a sample of the others.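 Rule for the calls: active = readout at or below -70, meaning at least 70% loss of cells showing the perinucleolar compartment, a nuclear body marking cancer cells; inconclusive = readout between -30 and a set limit; inactive = the rest.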
# Test: High Content Assay for Compounds that inhibit the Assembly of the Perinucleolar Compartment;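 note: plate controls were DMSO wells for no effect and camptothecin positive control wells for full effect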
# Details: PC3M PTB-GFP, PNC prevalence imaging, 16 h; at 10 µM; hits give low values
# Procedure, shortened: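 Compounds are pinned in duplicate onto adhered PC3M cells stably expressing GFP-tagged PTB and incubated 16 h at 37 C. Cells are then fixed, nuclei stained with Hoechst, and PNC-positive cells counted.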
row,SMILES,"activity change (PNC), negative = inhibition"
1,COc1ccc(N2CCN(C(=O)c3sc4nc(-c5ccc(F)cc5)cn4c3C)CC2)cc1,inconclusive: -61.4%
2,Cc1csc(C(C#N)C(=O)c2cc3ccccc3o2)n1 (configuration not stated),inconclusive: -60.8%
3,Cc1cccc(N2CCN(C3=NC(=O)C(=C4CCCCC4)S3)CC2)c1,inconclusive: -57.1%
4,Cc1ccc2c(c1)N(CC(=O)N1CCN(c3nc4ccccc4s3)CC1)C(=O)C(C)O2 (configuration not stated),inconclusive: -37.3%
5,CCOc1cc(/C=C/c2cc(C(=O)O)c3ccccc3n2)ccc1OC,inconclusive: -41.8%
6,O=S(=O)(NC1CCCCC1Nc1ccc(Cl)cc1)c1ccccc1 (configuration not stated),inactive: -17.1%
7,COc1ccc(OC)c(NC(=S)NCc2cccnc2)c1,inactive: -4.62%
8,Cc1c(O)ccc2c3c(c(=O)oc12)CCC(C)C3 (configuration not stated),inconclusive: -64.8%
9,COc1ccc(C(=O)NCc2cn3c(C)csc3n2)cc1OC,active: -100%
10,CCCNc1nc(C)nc2c1cnn2CCc1ccccc1,inactive: 19.3%
11,Cc1noc(/C=C/N(C)C)c1S(=O)(=O)N(C)CC(=O)N1CCc2ccccc21,inactive: -19.2%
12,Cc1cnc(C(=O)OCC(=O)NC2CCCCC2)cn1,inconclusive: -32.2%
13,CC(=O)NCC(=O)OCN1C(=O)c2ccccc2C1=O,inconclusive: -40.6%
14,CC(C)(C)NC(=O)CSC(=Nc1ccc(F)cc1)NC#N,inconclusive: -35.1%
15,Cc1ccc(S(=O)(=O)Nc2cccc(C(=O)Nc3cc(C)ccn3)c2)cc1,inconclusive: -54.9%
16,CCOc1ccc(OCC)c(S(=O)(=O)N2CCCCC2C)c1 (configuration not stated),inconclusive: -33.2%
17,O=C(NCc1ccccn1)c1cccc(NS(=O)(=O)c2cccc(F)c2)c1,inconclusive: -39.8%
18,CCc1ccc(NS(=O)(=O)c2ccc3[nH]cc(C(=O)NCC4CCCO4)c(=O)c3c2)cc1 (configuration not stated),inconclusive: -52.5%
19,CCOC(=O)c1sc(=S)n(C)c1N,inconclusive: -32.3%
20,O=C(Nn1c(=S)[nH]c2ccccc2c1=O)c1ccncc1,inconclusive: -37.7%
21,O=C(c1ccccc1)n1ccc2ccccc21,inconclusive: -55.4%
22,O=c1[nH]c2ccsc2c(=O)n1-c1ccc(F)cc1,inconclusive: -52.2%
23,O=C(CNc1ccccc1)c1ccc([N+](=O)[O-])cc1,inconclusive: -37.7%

row,SMILES,"activity change (PNC), negative = inhibition"
1,CCOC(=O)C1=C(C)N=c2s/c(=C\c3cccn3C)c(=O)n2C1c1cccc(OC)c1OC (configuration not stated),inconclusive: -37.3%
2,CC1=C(C)[N+](=O)C2(O)CCCCC2(C)N1[O-] (configuration not stated),inconclusive: -35.4%
3,CSc1nc(Cl)c(C#N)c(-c2ccc(C)cc2)n1,inconclusive: -34.6%
4,CCOC(=O)N1CCN(C(=O)COc2ccc(S(=O)(=O)Nc3ccc(OCC)cc3)cc2)CC1,inconclusive: -61.3%
5,COC(=O)c1ccccc1NC(=O)COC(C)=O,inactive: 18%
6,COc1ccc(C(c2nnnn2Cc2cccs2)N2CCN(c3ccc(F)cc3)CC2)cc1OC (configuration not stated),inactive: -28.1%
7,Cc1ccc(CNC(=O)c2cc3c(C)nc4ccccc4c3o2)cc1,inconclusive: -36.4%
8,Cc1ccc(C(=O)Nc2sc3c(c2C#N)CCCCC3)cc1C,inconclusive: -43.6%
9,Cc1cc(C)c(S(=O)(=O)N2CCN=C2c2ccccc2)cc1C,inactive: 36.4%
10,CC(C)SCCCCOc1ccc2ccccc2c1,inconclusive: -58.1%
11,c1coc(-c2nnc(SCc3nc4ccccc4[nH]3)o2)c1,inactive: 1.11%
12,COC(C)(C)[C@]12CC(O)(C(C)C)ON1[C@H]1CCCCC1N2O (some centres not stated),inconclusive: -46.1%
13,Cc1ccc(Cl)cc1N1CCN(C(=O)c2cccc3c(=O)c(C)c(-c4ccccc4)oc23)CC1,inactive: 2.98%
14,Cc1c(/C=N/NC(=O)C(NC(=O)c2ccc3c(c2)OCO3)C(C)C)c2ccccc2n1C (configuration not stated),inactive: -26.3%
15,Cc1nc(Nc2ccccc2Cl)sc1C(=O)Nc1ccccc1,inconclusive: -38.7%
16,Cc1nc(-c2ccccc2)sc1C(=O)CSc1ccccc1,inconclusive: -54%
17,COc1ccc(Nc2nnc(Cc3ccc(Cl)cc3)c(=O)[nH]2)c(OC)c1,inconclusive: -35.6%
18,Cc1c(C(=O)NCCCc2ccccc2)cccc1[N+](=O)[O-],inconclusive: -42.6%
19,O=C(CC(c1ccccc1)c1ccccc1O)NCc1ccccc1Cl (configuration not stated),inconclusive: -49.5%
20,Cc1ccc(S(=O)(=O)NC(CC(C)C)C(=O)NCc2ccco2)cc1 (configuration not stated),inconclusive: -39.4%
21,Nc1cccc2nc3ccccc3cc12,active: -113%
22,O=C(Oc1cccc2cccnc12)c1ccc(N2C(=O)C3C4CCC(C4)C3C2=O)cc1 (configuration not stated),inconclusive: -43.3%
23,CCCOc1ccc(N2C(=O)CC(N3CCCC(C(=O)N4CCCC4)C3)C2=O)cc1 (configuration not stated),inconclusive: -65.2%

# An excerpt of these results, bar-delimited.
row | SMILES | activity change (PNC), negative = inhibition
2 | CC1=C(C)[N+](=O)C2(O)CCCCC2(C)N1[O-] (configuration not stated) | inconclusive: -35.4%
6 | COc1ccc(C(c2nnnn2Cc2cccs2)N2CCN(c3ccc(F)cc3)CC2)cc1OC (configuration not stated) | inactive: -28.1%
20 | Cc1ccc(S(=O)(=O)NC(CC(C)C)C(=O)NCc2ccco2)cc1 (configuration not stated) | inconclusive: -39.4%

# Continued:

row,SMILES,"activity change (PNC), negative = inhibition"
1,O=C(c1ccc2c(c1)OCO2)N1CCN(C(=O)c2ccco2)CC1,inactive: 54.5%
2,Cn1c(CN2CCCC2)nc2cc(NC(=O)COc3ccccc3)ccc21,inconclusive: -31.2%
3,Cc1ccc(-n2ncc(C#N)c2/N=C/N2CCOCC2)cc1,inconclusive: -49.2%
4,COc1ccc(C2CC(c3ccccc3C)n3nc(N)nc3N2)cc1 (configuration not stated),inactive: -23.9%
5,CCC(C)NC(=O)Cc1cn(C)c2ccccc12 (configuration not stated),inconclusive: -65.7%
6,O=c1c2ccccc2c(C=Nc2ccc(Cl)cn2)c(O)n1-c1cc(Cl)ccc1N1CCOCC1,inconclusive: -31.2%
7,CCCCC(=O)Nc1cc([N+](=O)[O-])ccc1Cl,inconclusive: -30.5%
8,CNc1cc([N+](=O)[O-])ccc1N/C=C/C(=O)c1ccc2c(c1)OCO2,active: -118%
9,O=C(N/N=C/c1coc2ccccc2c1=O)c1ccccc1Br,inactive: -21.4%
10,O=C(NCc1ccccc1)c1cncc(Br)c1,inconclusive: -49.1%
11,O=C(Cn1c(=S)nc2ccccn21)N1CCc2ccccc2C1,inconclusive: -44.1%
12,Cc1nn(C)c(Cl)c1NC(=O)OCc1ccc(F)cc1,inconclusive: -48.7%
13,COc1ccc(NS(=O)(=O)c2cc([N+](=O)[O-])ccc2N/N=C\c2c(C)[nH]c3ccccc23)cc1,inactive: -18.1%
14,O=C(CCS(=O)(=O)c1cccc2nonc12)NCCc1ccccc1,inconclusive: -53.3%
15,O=C(O)CCNS(=O)(=O)c1ccc2c(c1)Cc1ccccc1-2,inconclusive: -44%
16,CCC(=O)NCCC(c1ccco1)c1ccccc1OC (configuration not stated),inactive: -11.4%
17,O=[N+]([O-])c1ccc(Oc2ccc(F)cc2Br)c2ccncc12,inconclusive: -54.5%
18,Cc1nc2c(sc3nc4c(cc32)COC(C)(C)C4)c(=O)n1CC(=O)NCc1ccco1,inconclusive: -39.3%
19,CCC(OC(=O)CCc1nc2ccccc2[nH]c1=O)C(=O)c1ccccc1 (configuration not stated),inconclusive: -30.1%
20,COc1ccccc1NS(=O)(=O)c1ccc(Cl)c(NC(=S)NC(=O)C2CCCC2)c1,inconclusive: -31.9%
21,CCn1c(SCc2nc3sc(C(=O)O)c(C)c3c(=O)[nH]2)nc2ccccc21,inactive: 53.7%
22,O=C(Nc1nnc(CSCc2ccccc2F)s1)c1cccc([N+](=O)[O-])c1,active: -100%
23,COc1ccc(NC(=S)NCc2ccco2)cc1,inactive: -18.8%

row,SMILES,"activity change (PNC), negative = inhibition"
1,Clc1ccc(-c2nnc(CSc3nnc(-c4cccs4)o3)o2)cc1,inactive: -15.7%
2,COc1ccc(C(=O)Nc2nc3nccc(-c4ccccc4)n3n2)cc1,inconclusive: -33.7%
3,Cc1noc(C)c1COc1ccc(C(=O)OCC(=O)Nc2cccc(S(=O)(=O)N3CCOCC3)c2)cc1,inactive: -4.31%
4,CC(=O)Nc1cccc(NS(=O)(=O)c2cccc3nsnc23)c1,inconclusive: -52.1%
5,O=C(Cc1c(O)c2ccccc2[nH]c1=O)NCc1ccccc1F,inconclusive: -30.1%
6,CCC(=O)Nc1cc2c(C)cc(=O)oc2cc1C,inactive: -9.53%
7,COC(=O)Cc1cc(=O)n(-c2nc3ccccc3[nH]2)[nH]1,active: -100%
8,CCN(CC)CCC(=O)NC(C)(C)Cc1ccc(O)cc1,inconclusive: -34.1%
9,COc1ccc(OC)c(C2C(C#N)=C(N)Oc3cc(N)ccc32)c1 (configuration not stated),inactive: 12.6%
10,Cc1cccc(NC(=O)CCN2CCOCC2)c1,inconclusive: -43.6%
11,COc1ccc(CC(=O)NC(C)c2nnc(SCC(=O)c3ccc(Br)cc3)n2C)cc1 (configuration not stated),inconclusive: -40.4%
12,Cc1cccc(NS(=O)(=O)c2cccc3cccnc23)n1,inconclusive: -43.3%
13,C=CCN1C(=O)C(Cc2ccc(Br)cc2)S/C1=N\N=C\c1ccco1 (configuration not stated),inactive: -27.1%
14,O=C(Oc1ccccc1/C=C\C(=O)c1cc2ccccc2o1)c1cccc(F)c1,inconclusive: -42%
15,N#C/C(=C/c1ccc(Br)o1)C(N)=O,active: -87.1%
16,Cc1ccccc1C1(CCN2CCCCC2)CCOC(C)(C)C1 (configuration not stated),inactive: -7.12%
17,CCOC(=O)c1cccc(NC2c3ccccc3C(=O)N2Cc2ccco2)c1 (configuration not stated),inconclusive: -41.9%
18,Cc1ccc(OCc2nnc(SCC(=O)Nc3sc(C)c(C)c3C#N)n2C)cc1,inconclusive: -33.7%
19,Cc1cccc(N2CCN(C(=O)n3ccnc3)CC2)c1C,inconclusive: -37.1%
20,O=S(=O)(c1ccccc1)c1nc(Nc2cccc(O)c2)sc1Cl,inconclusive: -74.6%
21,CCn1c(Cc2ccccc2)nnc1SCC(=O)OC(C)C,inconclusive: -60%
22,COc1cc(SC#N)ccc1N=Cc1c(C)[nH]n(-c2cccc3ccccc23)c1=O,inconclusive: -46.6%
23,Cc1cc(C)nc(SCC(=O)N/N=C/c2cccc([N+](=O)[O-])c2)n1,inactive: -2.99%

# Source: PubChem BioAssay AID2417 (National Center for Advancing Translational Sciences (NCATS), 2010)
